From the supplement of paper PMC10849652
Some of the results follow.

The chains behind the UniProt entries cited, without tags or fusion partners. Where a name states a change or a piece, a line headed by the entry shows the natural chain unless it says otherwise.
UniProt Q86YT6, whole entry, looked up: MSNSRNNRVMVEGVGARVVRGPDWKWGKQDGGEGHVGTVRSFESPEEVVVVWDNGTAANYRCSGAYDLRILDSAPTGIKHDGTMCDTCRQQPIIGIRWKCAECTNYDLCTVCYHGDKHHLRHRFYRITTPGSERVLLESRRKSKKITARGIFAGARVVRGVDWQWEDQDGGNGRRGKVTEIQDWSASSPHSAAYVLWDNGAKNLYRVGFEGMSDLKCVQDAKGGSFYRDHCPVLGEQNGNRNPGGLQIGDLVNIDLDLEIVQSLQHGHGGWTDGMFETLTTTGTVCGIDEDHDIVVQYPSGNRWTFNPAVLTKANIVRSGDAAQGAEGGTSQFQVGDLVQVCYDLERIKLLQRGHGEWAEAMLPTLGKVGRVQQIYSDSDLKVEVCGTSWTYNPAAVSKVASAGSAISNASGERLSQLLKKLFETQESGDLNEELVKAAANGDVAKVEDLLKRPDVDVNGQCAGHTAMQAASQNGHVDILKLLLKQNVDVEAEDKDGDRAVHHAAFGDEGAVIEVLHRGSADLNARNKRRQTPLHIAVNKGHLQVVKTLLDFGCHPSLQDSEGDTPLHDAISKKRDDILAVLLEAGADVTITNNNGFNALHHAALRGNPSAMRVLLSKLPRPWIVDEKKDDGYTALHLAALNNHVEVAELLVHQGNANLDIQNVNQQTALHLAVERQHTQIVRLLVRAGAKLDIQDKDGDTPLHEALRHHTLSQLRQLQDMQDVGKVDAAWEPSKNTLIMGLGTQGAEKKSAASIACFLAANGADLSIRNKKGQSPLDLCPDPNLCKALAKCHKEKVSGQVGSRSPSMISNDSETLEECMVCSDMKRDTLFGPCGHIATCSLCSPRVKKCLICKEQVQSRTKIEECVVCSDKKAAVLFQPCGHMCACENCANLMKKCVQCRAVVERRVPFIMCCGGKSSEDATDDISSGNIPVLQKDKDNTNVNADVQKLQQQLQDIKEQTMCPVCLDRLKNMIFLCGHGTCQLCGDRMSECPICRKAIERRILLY
UniProt Q5XKP0: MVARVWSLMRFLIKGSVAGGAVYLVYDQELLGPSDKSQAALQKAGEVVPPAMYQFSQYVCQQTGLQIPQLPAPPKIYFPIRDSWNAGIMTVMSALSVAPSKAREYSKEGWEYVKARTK
UniProt Q6WCQ1: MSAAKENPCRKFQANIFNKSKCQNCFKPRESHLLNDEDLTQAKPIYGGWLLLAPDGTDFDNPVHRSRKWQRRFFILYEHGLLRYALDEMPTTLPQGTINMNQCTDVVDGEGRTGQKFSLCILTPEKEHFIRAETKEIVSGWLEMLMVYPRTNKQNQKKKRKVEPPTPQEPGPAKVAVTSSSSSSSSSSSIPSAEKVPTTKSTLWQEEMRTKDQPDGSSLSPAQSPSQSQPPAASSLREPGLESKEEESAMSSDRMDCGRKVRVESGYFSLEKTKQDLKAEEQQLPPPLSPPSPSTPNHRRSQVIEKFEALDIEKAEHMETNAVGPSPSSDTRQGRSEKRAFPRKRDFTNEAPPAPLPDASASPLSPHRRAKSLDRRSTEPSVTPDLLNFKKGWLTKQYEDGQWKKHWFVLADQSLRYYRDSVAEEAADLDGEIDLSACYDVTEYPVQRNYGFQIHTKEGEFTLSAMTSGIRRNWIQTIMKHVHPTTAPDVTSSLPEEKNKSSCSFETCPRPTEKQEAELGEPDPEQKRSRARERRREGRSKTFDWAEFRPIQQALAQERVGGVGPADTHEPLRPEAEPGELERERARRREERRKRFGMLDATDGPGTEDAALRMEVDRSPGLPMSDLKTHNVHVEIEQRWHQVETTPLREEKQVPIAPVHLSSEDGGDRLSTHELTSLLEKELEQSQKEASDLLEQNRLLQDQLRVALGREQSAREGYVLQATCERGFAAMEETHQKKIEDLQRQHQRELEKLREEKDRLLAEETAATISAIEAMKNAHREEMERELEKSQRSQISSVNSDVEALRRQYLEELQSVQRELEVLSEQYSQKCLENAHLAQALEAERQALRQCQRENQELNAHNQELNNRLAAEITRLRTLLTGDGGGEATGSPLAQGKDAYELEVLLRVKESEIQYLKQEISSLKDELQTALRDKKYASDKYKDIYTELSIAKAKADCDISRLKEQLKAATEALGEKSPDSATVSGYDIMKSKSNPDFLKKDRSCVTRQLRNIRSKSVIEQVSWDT
UniProt Q96T76: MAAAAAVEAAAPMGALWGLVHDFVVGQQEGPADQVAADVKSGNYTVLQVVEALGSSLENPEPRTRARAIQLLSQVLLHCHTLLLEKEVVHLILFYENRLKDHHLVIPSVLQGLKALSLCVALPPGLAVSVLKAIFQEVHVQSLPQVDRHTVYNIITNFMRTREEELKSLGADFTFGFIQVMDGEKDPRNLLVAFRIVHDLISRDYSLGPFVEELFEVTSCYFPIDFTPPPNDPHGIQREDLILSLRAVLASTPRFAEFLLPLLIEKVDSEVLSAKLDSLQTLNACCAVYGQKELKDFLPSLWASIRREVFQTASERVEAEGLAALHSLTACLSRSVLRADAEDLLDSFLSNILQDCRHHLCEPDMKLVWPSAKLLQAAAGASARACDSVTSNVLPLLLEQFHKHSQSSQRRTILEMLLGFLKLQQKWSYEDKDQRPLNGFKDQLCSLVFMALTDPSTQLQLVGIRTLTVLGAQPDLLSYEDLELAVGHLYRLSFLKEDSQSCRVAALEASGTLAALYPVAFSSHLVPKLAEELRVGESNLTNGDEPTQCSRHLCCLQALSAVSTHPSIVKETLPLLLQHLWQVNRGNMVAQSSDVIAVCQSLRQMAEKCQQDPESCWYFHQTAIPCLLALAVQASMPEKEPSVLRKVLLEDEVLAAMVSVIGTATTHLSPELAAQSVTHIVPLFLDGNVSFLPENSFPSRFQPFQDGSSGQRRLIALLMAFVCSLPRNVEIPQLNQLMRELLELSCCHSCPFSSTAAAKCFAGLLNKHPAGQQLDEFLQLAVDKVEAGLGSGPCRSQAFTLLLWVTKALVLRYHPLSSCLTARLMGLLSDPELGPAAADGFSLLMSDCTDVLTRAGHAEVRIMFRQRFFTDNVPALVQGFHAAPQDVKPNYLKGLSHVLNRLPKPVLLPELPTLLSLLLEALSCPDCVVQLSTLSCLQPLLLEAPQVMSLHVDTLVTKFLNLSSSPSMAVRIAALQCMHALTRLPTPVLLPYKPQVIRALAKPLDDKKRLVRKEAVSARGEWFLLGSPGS
UniProt O95297: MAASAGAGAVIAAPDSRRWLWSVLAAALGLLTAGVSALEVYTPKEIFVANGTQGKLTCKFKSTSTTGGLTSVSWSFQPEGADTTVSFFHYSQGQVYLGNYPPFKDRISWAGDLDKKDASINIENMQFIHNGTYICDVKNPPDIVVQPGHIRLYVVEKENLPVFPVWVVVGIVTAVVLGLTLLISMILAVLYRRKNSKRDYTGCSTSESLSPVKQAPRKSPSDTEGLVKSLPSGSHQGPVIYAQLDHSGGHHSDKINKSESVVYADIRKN
UniProt Q9Y605: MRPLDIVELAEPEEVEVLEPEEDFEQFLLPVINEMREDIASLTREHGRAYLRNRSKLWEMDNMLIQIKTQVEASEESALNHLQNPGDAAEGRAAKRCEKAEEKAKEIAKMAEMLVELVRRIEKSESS
UniProt Q99549: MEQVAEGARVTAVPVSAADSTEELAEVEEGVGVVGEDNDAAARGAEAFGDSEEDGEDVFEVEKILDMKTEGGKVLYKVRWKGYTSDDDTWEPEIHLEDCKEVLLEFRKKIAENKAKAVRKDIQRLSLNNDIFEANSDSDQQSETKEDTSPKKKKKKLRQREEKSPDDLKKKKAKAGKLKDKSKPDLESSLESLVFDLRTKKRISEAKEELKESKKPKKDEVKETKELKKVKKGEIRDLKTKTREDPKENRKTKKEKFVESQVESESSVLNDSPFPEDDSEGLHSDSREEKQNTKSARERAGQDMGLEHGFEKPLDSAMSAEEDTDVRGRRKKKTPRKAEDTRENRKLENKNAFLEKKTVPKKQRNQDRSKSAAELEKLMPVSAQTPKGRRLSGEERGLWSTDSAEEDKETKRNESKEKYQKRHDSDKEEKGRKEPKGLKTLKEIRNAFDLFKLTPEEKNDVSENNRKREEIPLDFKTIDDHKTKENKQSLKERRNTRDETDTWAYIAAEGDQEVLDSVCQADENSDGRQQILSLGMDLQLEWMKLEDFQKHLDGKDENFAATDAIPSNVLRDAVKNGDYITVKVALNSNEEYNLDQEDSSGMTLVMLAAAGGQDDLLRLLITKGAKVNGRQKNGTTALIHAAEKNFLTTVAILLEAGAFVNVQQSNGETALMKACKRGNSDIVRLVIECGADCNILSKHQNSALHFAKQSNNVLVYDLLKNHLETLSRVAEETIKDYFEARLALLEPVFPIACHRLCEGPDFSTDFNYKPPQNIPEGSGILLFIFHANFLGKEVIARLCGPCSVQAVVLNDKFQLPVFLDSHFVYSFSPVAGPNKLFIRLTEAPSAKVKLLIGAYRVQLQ
UniProt Q9H8M7: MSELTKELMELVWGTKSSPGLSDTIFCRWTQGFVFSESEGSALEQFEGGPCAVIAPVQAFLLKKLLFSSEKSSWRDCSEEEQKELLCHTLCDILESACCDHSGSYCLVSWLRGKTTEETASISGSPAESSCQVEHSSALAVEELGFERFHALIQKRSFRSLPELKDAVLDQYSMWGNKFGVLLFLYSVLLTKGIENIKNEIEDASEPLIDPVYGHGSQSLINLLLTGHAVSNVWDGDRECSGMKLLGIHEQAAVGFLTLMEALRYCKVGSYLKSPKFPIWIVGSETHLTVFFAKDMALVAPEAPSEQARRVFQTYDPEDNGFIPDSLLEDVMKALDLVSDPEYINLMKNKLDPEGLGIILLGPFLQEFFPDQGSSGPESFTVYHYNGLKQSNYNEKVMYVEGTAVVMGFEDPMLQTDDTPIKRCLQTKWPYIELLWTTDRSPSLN
UniProt Q9BQP7: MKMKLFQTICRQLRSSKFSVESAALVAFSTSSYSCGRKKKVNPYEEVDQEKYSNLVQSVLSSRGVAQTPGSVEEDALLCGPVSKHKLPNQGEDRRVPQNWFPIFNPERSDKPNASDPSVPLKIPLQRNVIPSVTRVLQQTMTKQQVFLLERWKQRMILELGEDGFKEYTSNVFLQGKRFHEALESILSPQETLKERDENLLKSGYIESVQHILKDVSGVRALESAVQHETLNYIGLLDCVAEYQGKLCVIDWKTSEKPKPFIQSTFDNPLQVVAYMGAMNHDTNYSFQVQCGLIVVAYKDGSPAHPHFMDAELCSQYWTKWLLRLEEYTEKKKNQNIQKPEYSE
UniProt Q9UBU8, whole entry, looked up: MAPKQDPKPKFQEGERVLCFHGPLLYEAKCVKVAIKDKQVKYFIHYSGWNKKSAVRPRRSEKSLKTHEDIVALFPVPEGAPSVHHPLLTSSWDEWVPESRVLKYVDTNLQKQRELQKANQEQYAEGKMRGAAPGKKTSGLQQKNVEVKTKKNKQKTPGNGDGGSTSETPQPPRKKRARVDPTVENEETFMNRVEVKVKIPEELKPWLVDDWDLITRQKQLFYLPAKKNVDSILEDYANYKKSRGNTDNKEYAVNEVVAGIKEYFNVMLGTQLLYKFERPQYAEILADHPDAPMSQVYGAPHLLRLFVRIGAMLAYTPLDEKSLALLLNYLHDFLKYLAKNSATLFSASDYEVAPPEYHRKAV
UniProt Q9Y5U8: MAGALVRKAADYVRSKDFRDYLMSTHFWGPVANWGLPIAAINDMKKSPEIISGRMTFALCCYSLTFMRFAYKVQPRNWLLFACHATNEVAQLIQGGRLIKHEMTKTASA
UniProt Q9BV20: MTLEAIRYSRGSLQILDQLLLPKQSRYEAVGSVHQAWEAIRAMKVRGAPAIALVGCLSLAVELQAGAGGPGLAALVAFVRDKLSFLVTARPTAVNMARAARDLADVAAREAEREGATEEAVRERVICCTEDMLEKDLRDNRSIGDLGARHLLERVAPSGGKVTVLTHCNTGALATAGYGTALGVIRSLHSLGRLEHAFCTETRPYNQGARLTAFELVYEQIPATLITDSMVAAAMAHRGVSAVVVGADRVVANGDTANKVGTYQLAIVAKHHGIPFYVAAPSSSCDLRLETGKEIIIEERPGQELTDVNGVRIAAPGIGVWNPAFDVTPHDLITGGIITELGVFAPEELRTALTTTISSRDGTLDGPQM
UniProt Q9BRT3: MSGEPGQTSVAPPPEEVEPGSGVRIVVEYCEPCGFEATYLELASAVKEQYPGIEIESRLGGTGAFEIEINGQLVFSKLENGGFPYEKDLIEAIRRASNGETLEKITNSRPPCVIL
UniProt Q70IA6: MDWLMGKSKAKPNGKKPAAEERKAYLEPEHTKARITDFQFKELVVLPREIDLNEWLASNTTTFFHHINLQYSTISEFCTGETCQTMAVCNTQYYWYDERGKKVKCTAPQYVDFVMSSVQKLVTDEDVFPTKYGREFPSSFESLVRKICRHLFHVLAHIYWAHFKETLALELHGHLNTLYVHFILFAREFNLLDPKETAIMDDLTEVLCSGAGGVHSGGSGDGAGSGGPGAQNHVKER

Experiments:
Test in all cases: log2 fold change, soluble protein after heating vs DMSO (PISA); higher = thermal stabilisation; K562 lysate, 10 uM; active = over 0.2 and 3.5 SD of the protein, either way, in both replicates (recomputed)
[1] = compound: CCCS(=O)(=O)Nc1ccc(F)c(C(=O)c2c[nH]c3ncc(-c4ccc(Cl)cc4)cc23)c1F [vemurafenib]
How it was run: (§1)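 Quantification was by TMTpro 16plex LC-MS/MS with equalised channel sums, applied to the supernatant after 21,000xg for 90 min. Samples were crude K562 extract at 1 mg/mL protein in PBS pH 7.4 with 1 mM MgCl2, treated with 10 μM compound for 30 min, heated for 3 min across 48°C-58°C, pooled and brought to 0.5% NP-40 at 4°C. Values are log-two fold changes in thermal stability relative to solvent controls, from duplicates.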

[2] = compound: CCCS(=O)(=O)Nc1ccc(F)c(C(=O)c2c[nH]c3ncc(Cl)cc23)c1F
How it was run: as §1

[3] = compound: CCN(CCCOc1ccc2c(Nc3cc(CC(=O)Nc4cccc(F)c4)[nH]n3)ncnc2c1)CCOP(=O)(O)O [barasertib]
How it was run: as §1

[4] = compound: CC[C@@H]1C(=O)N(C)c2cnc(Nc3ccc(C(=O)NC4CCN(C)CC4)cc3OC)nc2N1C1CCCC1
How it was run: as §1

[5] = compound: CC[C@@H]1C(=O)N(C)c2cnc(Nc3ccc(C(=O)N[C@H]4CC[C@H](N5CCN(CC6CC6)CC5)CC4)cc3OC)nc2N1C(C)C [volasertib]
How it was run: as §1

[6] = compound: CCn1c(C(=O)N(C2CC2)C2CC2)cc2c3c(ncn3C)c(Nc3cc(C)n(C)n3)nc21
How it was run: as §1

[7] = compound: CCn1cc(-c2ccnc3[nH]c(-c4cccc(CN(C)C)c4)cc23)c(-c2ccc(NC(=O)N(C)C)cc2)n1
How it was run: as §1

[8] = compound: CN1CCC(CNc2ccc3ncc(-c4cccc(OC(F)(F)F)c4)n3n2)CC1
How it was run: as §1

[9] = compound: CN1CCN(CCOc2cc(OC3CCOCC3)c3c(Nc4c(Cl)ccc5c4OCO5)ncnc3c2)CC1 [saracatinib]
How it was run: as §1

[10] = compound: CN1CCN(c2nc(C3=C(c4c[nH]c5ccccc45)C(=O)NC3=O)c3ccccc3n2)CC1 [sotrastaurin]
How it was run: as §1

Measured: log2 fold change

MRPL23 (UniProt Q16540)
inactive: [1] 0.014 | [2] 0.046 | [3] 0.065 | [4] 0.085 | [5] 0.015 | [6] -0.203 | [7] -0.004 | [8] -0.018 | [9] -0.065 | [10] -0.032

MIB1 (UniProt Q86YT6)
inactive: [1] -0.025 | [2] -0.055 | [3] 0.007 | [4] -0.056 | [5] -0.112 | [6] -0.065 | [7] -0.006 | [8] 0.022 | [9] -0.004 | [10] -0.04

MIEF1 (UniProt L0R8F8)
inactive: [1] -0.039 | [2] -0.013 | [3] 0.013 | [4] 0.009 | [5] -0.075 | [6] 0.008 | [7] 0.1 | [8] 0.021 | [9] -0.006 | [10] -0.112

MPST isoform 2 (UniProt P25325)
inactive: [1] -0.027 | [2] 0 | [3] 0.05 | [4] 0.026 | [5] -0.006 | [6] -0.044 | [7] -0.004 | [8] 0.03 | [9] -0.014 | [10] -0.001

MICALL2 (UniProt Q8IY33)
inactive: [1] 0.007 | [2] -0.007 | [3] -0.001 | [4] 0.078 | [5] 0.009 | [6] -0.008 | [7] 0.009 | [8] -0.039 | [9] -0.015 | [10] 0.014

MRPL14 (UniProt Q6P1L8)
inactive: [1] 0.012 | [2] -0.033 | [3] 0.071 | [4] 0.032 | [5] 0.042 | [6] 0.078 | [7] 0.074 | [8] 0.029 | [9] -0.12 | [10] -0.014

MICOS13 (UniProt Q5XKP0)
inactive: [1] 0.073 | [2] -0.005 | [3] 0.032 | [4] 0.009 | [5] 0.018 | [6] 0.021 | [7] -0.002 | [8] -0.086 | [9] -0.028 | [10] -0.085

MPRIP isoform 2 (UniProt Q6WCQ1)
inactive: [1] -0.005 | [2] 0.128 | [3] -0.001 | [4] 0.046 | [5] 0.074 | [6] -0.019 | [7] 0.101 | [8] -0.015 | [9] 0.108 | [10] -0.015

MMS19 isoform 8 (UniProt Q96T76)
inactive: [1] 0.064 | [2] 0.006 | [3] 0.029 | [4] -0.061 | [5] -0.114 | [6] 0.002 | [7] -0.005 | [8] -0.051 | [9] 0 | [10] 0.026

MPP6 (UniProt Q9NZW5)
inactive: [1] -0.003 | [2] 0.009 | [3] 0.008 | [4] 0.061 | [5] -0.032 | [6] 0.021 | [7] -0.002 | [8] -0.039 | [9] 0.024 | [10] 0.003

MGAT5 (UniProt Q09328)
inactive: [1] -0.254 | [2] -0.07 | [3] 0.062 | [4] -0.08 | [5] -0.065 | [6] 0.021 | [7] 0.094 | [8] -0.138 | [9] -0.036 | [10] 0.002

MPZL1 (UniProt O95297)
active: [7] 0.262
inactive: [1] 0.037 | [2] 0.001 | [3] 0.024 | [4] 0.057 | [5] 0.035 | [6] 0.027 | [8] -0.052 | [9] 0.045 | [10] -0.022

MRFAP1 (UniProt Q9Y605)
inactive: [1] -0.132 | [2] 0.001 | [3] -0.009 | [4] -0.012 | [5] 0.051 | [6] -0.004 | [7] -0.066 | [8] 0.003 | [9] 0.023 | [10] 0.02

MPHOSPH8 (UniProt Q99549)
inactive: [1] -0.135 | [2] -0.008 | [3] 0.098 | [4] 0.16 | [5] 0.024 | [6] 0.01 | [7] 0.073 | [8] 0.058 | [9] 0.048 | [10] -0.029

MRPL21 (UniProt Q7Z2W9)
inactive: [1] 0.015 | [2] -0.001 | [3] 0.012 | [4] -0.005 | [5] -0.012 | [6] -0.014 | [7] -0.025 | [8] -0.002 | [9] 0.019 | [10] -0.065

MINDY3 (UniProt Q9H8M7)
inactive: [1] -0.014 | [2] 0.009 | [3] 0.016 | [4] -0.05 | [5] -0.002 | [6] -0.004 | [7] -0.032 | [8] 0.083 | [9] 0.031 | [10] 0.064

MKRN1 (UniProt Q9UHC7)
inactive: [1] -0.028 | [2] 0.009 | [3] 0.058 | [4] -0.008 | [5] 0.036 | [6] 0.056 | [7] -0.037 | [8] 0.015 | [9] -0.089 | [10] 0.034

MICAL1 isoform 4 (UniProt Q8TDZ2)
inactive: [1] -0.013 | [2] 0.002 | [3] 0.018 | [4] 0.028 | [5] -0.011 | [6] -0.004 | [7] 0.026 | [8] -0.03 | [9] 0.065 | [10] -0.047

MRM3 (UniProt Q9HC36)
inactive: [1] -0.038 | [2] -0.05 | [3] 0 | [4] 0.016 | [5] -0.013 | [6] -0.039 | [7] 0.093 | [8] -0.076 | [9] -0.031 | [10] -0.05

MGME1 (UniProt Q9BQP7)
inactive: [1] 0.003 | [2] 0.002 | [3] 0 | [4] -0.024 | [5] -0.011 | [6] -0.037 | [7] 0.016 | [8] -0.014 | [9] 0.009 | [10] 0.012

MIA2 (UniProt Q96PC5)
inactive: [1] 0.029 | [2] -0.013 | [3] 0.029 | [4] 0.017 | [5] -0.02 | [6] -0.036 | [7] 0.17 | [8] -0.108 | [9] 0.036 | [10] 0.019

MICB, A0A140T979
inactive: [1] -0.054 | [2] 0.098 | [3] 0.039 | [4] 0.223 | [5] -0.072 | [6] -0.084 | [7] -0.05 | [8] 0.066 | [9] 0.019 | [10] 0.096

Random excerpt: 2 entries already listed.
MIA2 (UniProt Q96PC5)
inactive: [1] 0.029 | [2] -0.013 | [3] 0.029 | [4] 0.017 | [5] -0.02 | [6] -0.036 | [7] 0.17 | [8] -0.108 | [9] 0.036 | [10] 0.019

MGME1 (UniProt Q9BQP7)
inactive: [1] 0.003 | [2] 0.002 | [3] 0 | [4] -0.024 | [5] -0.011 | [6] -0.037 | [7] 0.016 | [8] -0.014 | [9] 0.009 | [10] 0.012

The results go on:

MLXIP (UniProt Q9HAP2)
inactive: [1] 0.004 | [2] 0.013 | [3] 0.019 | [4] -0.032 | [5] -0.041 | [6] 0.028 | [7] -0.045 | [8] 0.093 | [9] 0 | [10] 0.008

MRPL10 isoform 2 (UniProt Q7Z7H8)
inactive: [1] 0.027 | [2] 0.033 | [3] 0.132 | [4] 0.03 | [5] -0.037 | [6] -0.063 | [7] 0.075 | [8] -0.032 | [9] -0.005 | [10] 0.068

MORF4L1 isoform 2 (UniProt Q9UBU8)
inactive: [1] 0.034 | [2] -0.017 | [3] 0.007 | [4] 0.016 | [5] 0 | [6] -0.005 | [7] -0.036 | [8] 0.131 | [9] 0.038 | [10] 0.019

MPC1 (UniProt Q9Y5U8)
inactive: [1] 0.076 | [2] 0.077 | [3] 0.055 | [4] 0.052 | [5] 0.034 | [6] -0.078 | [7] 0.279 | [8] -0.369 | [9] 0.15 | [10] -0.005

MRI1 (UniProt Q9BV20)
inactive: [1] -0.012 | [2] 0.02 | [3] 0.018 | [4] -0.024 | [5] 0.021 | [6] 0.014 | [7] -0.077 | [8] 0.084 | [9] -0.007 | [10] -0.03

MIEN1 (UniProt Q9BRT3)
inactive: [1] 0.004 | [2] -0.006 | [3] 0.211 | [4] -0.018 | [5] 0.03 | [6] 0.042 | [7] -0.03 | [8] -0.138 | [9] 0.004 | [10] -0.049

MOB2 isoform 3 (UniProt Q70IA6)
inactive: [1] 0.047 | [2] -0.004 | [3] 0.123 | [4] 0.04 | [5] -0.05 | [6] -0.013 | [7] 0.074 | [8] -0.062 | [9] 0.08 | [10] 0.066
